Data reported in PubChem BioAssay AID445 (National Center for Advancing Translational Sciences (NCATS), 2006).
The list shows a part of the results. Shown are side measurements of this screen, not its main read-out; they come without a call. Compounds called inactive in the main read-out are mostly missing here. Words in brackets tell the shape of the fitted curve; partial curves, single points and poor fits give uncertain potencies.

Assay: IkB Signaling
Details: ABC-DLBCL IkBa-CBG/CBR dual luciferase ratio (green luciferase fused to IkBa over red control in OCI-Ly3 lymphoma cells), 4 h
Outline: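 Curves were fitted separately to fusion (green), unfused (red) and ratio luminescence, then classed by r2, magnitude and activity. Cells: OCI-Ly3, 4 h compound plus doxycycline at 37C; 10 uM MG-132 defined full response.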

[1] = measured here: control luc red channel unless noted
[2] = measured here: IkB-luc green channel
[3] = measured here: control luc red channel

In the case of `Cc1cc2ccccc2n1-c1ccc(C(=O)N2CCC(C(=O)NCc3ccc(Cl)cc3)CC2)s1`, the AC50 [1] is reported as 3.98 µM [falling, full curve].

With `O=C(CSc1nnc(-c2cccs2)o1)Oc1ccccc1` the AC50 [1] was 25.1 µM [falling, single point].

For `CC(=O)c1sc(NC(=O)C2(F)C(F)(F)C(F)(F)C(F)(F)C(F)(F)C2(F)F)nc1C`, the AC50 [1] was 1 µM [falling, full curve, poor fit].

In the case of `O=C(c1cccnc1)N1CCN(S(=O)(=O)c2ccc(S(=O)(=O)N3CCCC3)cc2)CC1`, the AC50 [1] is reported as 10 nM [rising, full curve, poor fit] [measured here: IkB-luc green channel].

With `COc1ccc2oc(=O)c(C(=O)NCCc3c(C)[nH]c4c(C)cccc34)cc2c1` the AC50 [1] was 15.8 µM [falling, single point].

With `COC(=O)c1cc(NC(=O)CCS(=O)(=O)c2cc(Br)cc3c2N(C(=O)C2CC2)CC3)cc(C(=O)OC)c1` the AC50 [1] was 39.8 µM [falling, single point].

In the case of `CCOc1cc2[nH]c(=O)n(CCC(=O)N3CCN(c4cccc(Cl)c4)CC3)c(=O)c2cc1OCC`, the AC50 [1] is reported as 5.01 µM [rising, partial curve].

In the case of `CCOc1ccc(-c2csc3ncnc(Nc4cccc(O)c4)c23)cc1`, the AC50 [1] is reported as 6.31 µM [falling, full curve].

For `Cc1ccccc1C(=O)Nc1ccc(NC(=O)c2cccs2)cc1`, the AC50 [1] was 15.8 µM [falling, partial curve].

For `CC(=O)N1CCCc2cc(S(=O)(=O)N3CCC(C(=O)NCc4ccc(F)cc4)CC3)ccc21`, the AC50 [1] was 0.2 µM [falling, partial curve, poor fit].

For `CCN1c2ccccc2NC2N=C(OC)C(c3ccccc3)C21` (configuration not stated), the AC50 [1] was 7.94 µM [falling, partial curve].

With `COc1ccccc1N1CCN(C(=O)C2CCN(S(=O)(=O)c3cccc4nonc34)CC2)CC1` the AC50 [1] was 15.8 µM [falling, single point].

In the case of `CCOC(=O)c1c(C)n(-c2ccccc2)c2ccc(OC(=O)c3ccccc3Cl)cc12`, the AC50 [1] is reported as 0.794 µM [rising, full curve].

In the case of `COc1ccc(CC(=O)Nc2cccc(-c3nnc(-c4ccc(C)cc4)o3)c2)cc1OC`, the AC50 [1] is reported as 1 µM [falling, full curve].

With `CC(C)COc1ccc(C(=O)NCC2OCCc3ccccc32)cc1` (configuration not stated) the AC50 [1] was 20 µM [falling, single point].

With `CCOc1ccc(CCNC(=O)C2CCCN(c3nnc(C)c4c(C)n(-c5ccccc5)nc34)C2)cc1` (configuration not stated) the AC50 [1] was 12.6 µM [falling, partial curve].

For `NC(=O)c1c(NC(=O)c2noc3c2CCCC3)sc2c1CCCC2`, the AC50 [2] was 31.6 µM [rising, partial curve] and the AC50 [3] was 0.631 µM [rising, partial curve].

For `CC(=O)N1c2c(cc(Br)cc2S(=O)(=O)N2CCN(c3ccccn3)CC2)CC1C` (configuration not stated), the AC50 [1] was 20 µM [falling, partial curve].

With `CCc1ccccc1Nc1nn2c(=O)c3ccc(C(=O)NCCc4ccccc4)cc3nc2s1` the AC50 [1] was 2.51 µM [falling, full curve, poor fit].

For `Cc1cccc(C(=O)NC2(C(F)(F)F)N=C(c3ccccc3)N(Cc3ccccc3)C2=O)c1` (configuration not stated), the AC50 [1] was 10 µM [falling, partial curve].

With `O=C(CSc1nc2ccccc2n1CC(=O)Nc1ccc(F)cc1F)Nc1ccc(F)cc1` the AC50 [1] was 2.51 µM [falling, full curve].

In the case of `COc1ccc(-n2c(SCc3nc(-c4ccc(C)cc4)no3)nnc2-c2ccncc2)cc1`, the AC50 [1] is reported as 31.6 µM [falling, single point].

In the case of `CCOc1ccc2c(c1)c(=O)c(S(=O)(=O)c1ccc(C)cc1)cn2CC(=O)Nc1ccc(C)cc1`, the AC50 [1] is reported as 15.8 µM [falling, single point].

For `CCn1c(=O)c2cc(C(=O)NCCc3cccc(C)c3)sc2c2ccccc21`, the AC50 [1] was 0.794 µM [falling, full curve, poor fit].

For `O=C(Nc1ccccc1)c1ccc2nc(-c3ccco3)c(-c3ccco3)nc2c1`, the AC50 [1] was 15.8 µM [falling, partial curve].

For `CC(=O)c1ccc(NC(=O)c2cccc(NC(=O)N3CCSc4ncccc43)c2)cc1`, the AC50 [1] was 1 µM [falling, full curve].

In the case of `CCOC(=O)c1cnc(-n2nc(C)cc2C)nc1NCc1ccccc1`, the AC50 [1] is reported as 25.1 µM [falling, partial curve].

With `CCOCCCNC(=O)c1c(NC(=O)Cc2coc3c(C)c(C)ccc23)sc2c1CCC2` the AC50 [1] was 0.501 µM [falling, full curve].

With `Cc1onc(-c2ccccc2Cl)c1C(=O)N1CCc2ccccc21` the AC50 [1] was 15.8 µM [falling, partial curve].

For `COC(=O)c1cc(C)nc2c1c(=O)nc(SCc1cc(C)ccc1C)n2C1CC1`, the AC50 [1] was 39.8 µM [falling, single point].

With `CCCN(Cc1cc2cc(C)ccc2[nH]c1=O)C(=O)c1cccc(Cl)c1` the AC50 [1] was 25.1 µM [falling, single point].

With `COc1ccccc1Nc1nnc(SCC(=O)N2CCCC2=O)s1` the AC50 [1] was 5.01 µM [falling, partial curve].

In the case of `Cc1ccc(-c2nnn(CC(=O)N(Cc3ccco3)C(C(=O)NC(C)(C)C)c3cccs3)n2)o1` (configuration not stated), the AC50 [1] is reported as 12.6 µM [falling, partial curve].

With `Cc1c(Cl)cccc1NC(=O)N1CCN(Cc2cc(=O)n3nc(-c4ccccc4F)sc3n2)CC1` the AC50 [1] was 20 µM [falling, single point].

In the case of `O=C(Nc1ccc2ccccc2c1)N1CCN(c2ncccc2C(F)(F)F)CC1`, the AC50 [1] is reported as 39.8 µM [falling, single point].

In the case of `COc1ccc(NS(=O)(=O)c2ccc3c(c2)CCN3C(=O)C2CC2)cc1OC`, the AC50 [1] is reported as 3.98 µM [rising, partial curve].

In the case of `COc1ccccc1C(=O)NCCn1cc(SCC(=O)NCc2ccco2)c2ccccc21`, the AC50 [1] is reported as 12.6 µM [falling, partial curve].

In the case of `CC1CN(c2oc(COc3ccc(Cl)cc3Cl)nc2C#N)CC(C)O1` (configuration not stated), the AC50 [1] is reported as 31.6 µM [falling, single point].

In the case of `CCC(C)NC(=O)Cn1ncc2c(C)n(Cc3ccc(F)cc3)c(C)c2c1=O` (configuration not stated), the AC50 [1] is reported as 3.98 µM [falling, partial curve].

For `COC(=O)c1ccc(Cn2c(=O)cc(C)c3c(C)nn(C)c32)cc1`, the AC50 [1] was 15.8 µM [falling, single point].

With `Cc1oc(C)c2c(=O)ccc3c(c12)OC(N)=C(C#N)C3c1ccccc1` (configuration not stated) the AC50 [1] was 31.6 µM [falling, single point].

In the case of `CCn1cc(C(=O)N2CCN(c3ccccc3)CC2)c(=O)c2cc(S(=O)(=O)N(C)C3CCCCC3)ccc21`, the AC50 [1] is reported as 20 µM [falling, partial curve].

For `CC(=O)CSc1nc(-c2ccccc2)[nH]c1S(=O)(=O)c1ccc(C)cc1`, the AC50 [1] was 25.1 µM [falling, single point].

With `CCOc1ccc(Sc2cc(C(=O)NCc3ccc(F)cc3)c3ccccc3n2)cc1` the AC50 [1] was 2.51 µM [falling, partial curve].

In the case of `O=C(CN1C(=O)CCSc2ccc(S(=O)(=O)N3CCCC3)cc21)Nc1cccc(Cl)c1`, the AC50 [1] is reported as 15.8 µM [falling, partial curve].

For `Cc1cc(C)n2nc(CNC(=O)c3cccc(Cl)c3)nc2n1`, the AC50 [1] was 0.794 µM [rising, partial curve, poor fit].

With `CSc1ccc(CCNC(=O)C(C)n2nc(C)c3c(C)n(-c4ccccc4)nc3c2=O)cc1` (configuration not stated) the AC50 [1] was 0.01 µM [falling, full curve, poor fit].

For `CCCc1ccc(Oc2c(-c3ccc(O)c(C)c3O)n[nH]c2C)cc1`, the AC50 [2] was 39.8 µM [falling, single point] and the AC50 [3] was 31.6 µM [falling, single point].

For `Cc1ccc(CCNC(=O)Cn2nc(C)c3c(C)n(-c4ccc(C)cc4)nc3c2=O)cc1`, the AC50 [1] was 25.1 µM [falling, partial curve].

In the case of `Cc1cccc(CNC(=O)c2ccc(-c3nc(CS(=O)(=O)c4ccccc4)c(C)o3)cc2)c1`, the AC50 [1] is reported as 3.16 µM [falling, full curve, poor fit].

In the case of `Cc1ccc(NC(=O)COc2ccc3oc4c(c3c2)CCCC4)c(C)c1`, the AC50 [1] is reported as 39.8 µM [falling, single point].

In the case of `Cc1noc2ncnc(Nc3ccc(F)cc3)c12`, the AC50 [1] is reported as 0.00631 µM [rising, full curve, poor fit].

In the case of `COc1cccc2cc(-c3nnc(Nc4ccccc4C)s3)c(=O)oc12`, the AC50 [1] is reported as 1.26 µM [falling, partial curve].

In the case of `COc1ccccc1N1CCN(C(=O)CCn2cnc3onc(-c4ccc(F)cc4)c3c2=O)CC1`, the AC50 [1] is reported as 15.8 µM [falling, partial curve].

With `N#Cc1cccc(-c2nc3cnc(Nc4ccccc4)nc3n(C[C@H]3CCCO3)c2=O)c1` the AC50 [1] was 3.16 µM [falling, partial curve] [measured here: IkB-luc green channel].

For `Cc1ccc(CCNC(=O)NCc2noc3ccc(C)cc23)cc1`, the AC50 [1] was 39.8 µM [falling, single point].

For `COC(=O)c1ccc(O)c(Sc2cc(C(=O)OC)ccc2O)c1`, the AC50 [1] was 10 µM [falling, partial curve].

For `Cc1cccc(NC(=O)Cn2cc(S(=O)(=O)c3ccc(F)cc3)c(=O)c3cc4c(cc32)OCO4)c1`, the AC50 [1] was 39.8 µM [falling, single point].

In the case of `CC(=O)c1cccc(NC(=O)c2cnn(-c3cccc(C)c3)c2-n2cccc2)c1`, the AC50 [1] is reported as 0.316 µM [falling, partial curve].

For `CCC(=O)N1CCc2cc(Br)cc(S(=O)(=O)NCCc3ccccc3Cl)c21`, the AC50 [1] was 25.1 µM [falling, partial curve].
